In US9994915B2, “miR-211 expression and related pathways in human melanoma” (Sanford-Burnham Medical Research Institute, priority 2010, dated 2018):
At least one structure is not confirmed: it was looked up by name or label, or the drawing left a doubt.

System: PGC1α
Assay: qRT-PCR of PGC1α in A375 cells treated with vemurafenib
Assay type: cell-based, human
Settings: 3 uM, 47 hours

`CCCS(=O)(=O)Nc1ccc(F)c(C(=O)c2c[nH]c3ncc(-c4ccc(Cl)cc4)cc23)c1F` [vemurafenib] was tested. Which “increase of PGC1α levels” value (A375/211 cells) did it give?
The value was “attenuated”.

And the PGC1α levels (A375 vector only (parental) cells)?
Its PGC1α levels is “upregulated”.
